“And” between values parts separate entries of the source, which are not always exact repeats. Equal values may be shown once. Where a name gives a salt, the structure may show the parent alone. ± gives the standard deviation of the averaged measurements. The list shows a part of the results. Plates or batches differ in their baseline, so values are only roughly comparable.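 Primary human stellate myofibroblasts activated in culture; inactivation shown by regained lipid droplets. Readout: fraction of Hoechst-counted cells exceeding a per-plate Bodipy threshold, duplicate wells, each plate with DMSO negative and nortriptyline positive controls. Hits: control-normalized score beyond the plate's top-tenth-percentile nortriptyline wells, or among its three best wells. Final well concentrations unstated.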
Test system: primary human hepatic stellate cells (donor 1)
Assay: percent Bodipy-positive cells; higher = more lipid droplet accumulation
Settings: 48 h
[1] = library stock concentration: 10 mM
[2] = library stock concentration: 1 mM
[3] = library stock concentration: 400 uM
[4] = library stock concentration: 3.33 mM

C[C@H](CCC(=O)O)[C@H]1CC[C@H]2[C@@H]3C(=O)C[C@@H]4CC(=O)CC[C@]4(C)[C@H]3CC(=O)[C@]12C [Dehydrocholic acid]
percent Bodipy-positive cells: 42.7 ± 17% | percent Bodipy-positive cells (library stock concentration: 5 mM): 10.8 ± 4.6%

C[C@H](CCC(=O)O)[C@H]1CC[C@H]2[C@@H]3C(=O)C[C@@H]4CC(=O)CC[C@]4(C)[C@H]3CC(=O)[C@]12C
percent Bodipy-positive cells [1]: 8.34 ± 3.3%

Cc1oc(S(=O)(=O)N2CCCCC2)cc1NC(=O)Nc1ccccc1
percent Bodipy-positive cells [2]: 10.7 ± 2.2%

CO[C@H]1C[C@H](O[C@@H]2/C(C)=C/C[C@@H]3C[C@@H](C[C@]4(CC[C@H](C)[C@@H](C5CCCCC5)O4)O3)OC(=O)[C@@H]3C=C(C)/C(=N/O)[C@H]4OC/C(=C\C=C\[C@@H]2C)[C@]43O)O[C@@H](C)[C@@H]1O [Selamectin]
percent Bodipy-positive cells (library stock concentration: 2.6 mM): 4.29 ± 1.9% | percent Bodipy-positive cells [1]: 34.7 ± 5.1%

CN1CCN(Cc2ccc(-c3cnc4[nH]cc(-c5ccc6[nH]ccc6c5)c4c3)cc2)CC1
percent Bodipy-positive cells (library stock concentration: 80 uM): 7.45 ± 0.042% | percent Bodipy-positive cells [3]: 19.3 ± 2.2% | percent Bodipy-positive cells [1]: 97.9 ± 1.4%

CC(C)c1cc(C(C)C)c(CC(=O)NS(=O)(=O)Oc2c(C(C)C)cccc2C(C)C)c(C(C)C)c1 [Avasimibe]
percent Bodipy-positive cells [4]: 11.3 ± 4.5% | percent Bodipy-positive cells [1]: 26.4 ± 17%

CC(C)(C)NC[C@H](O)COc1cccc2c1CCCC2=O [(-) -Levobunolol hydrochloride]
percent Bodipy-positive cells: 12.7 ± 2%

CC(C)(C)NC[C@H](O)COc1cccc2c1CCCC2=O [Levobunolol hydrochloride]
percent Bodipy-positive cells (library stock concentration: 6.1 mM): 11.9 ± 0.57%

O=C(NNc1nc2cc(F)ccc2n2cccc12)c1cnccn1
percent Bodipy-positive cells [4]: 32 ± 1.6% | percent Bodipy-positive cells [1]: 79.5 ± 1.4%

C[N+](C)(C)CCOC(N)=O [Carbachol]
percent Bodipy-positive cells: 7.66 ± 1.3% | percent Bodipy-positive cells (library stock concentration: 11 mM): 4.54 ± 0.97%

Nc1ncn(C2OC(CO)C(O)C2O)c(=O)n1 (stereo not drawn) [Azacytidine-5]
percent Bodipy-positive cells: 8.65 ± 0.22%

COC(=O)/C=C/C(=O)OC [Dimethyl Fumarate]
percent Bodipy-positive cells [4]: 7.06 ± 0.081% | percent Bodipy-positive cells [1]: 7.5 ± 2.1%

COC(=O)/C=C/C(=O)OC
percent Bodipy-positive cells [1]: 34.63 ± 0.27%

COc1ccc(-c2oc3cc(OC)ccc3c2C(=O)c2ccc(C#N)cc2)cc1
percent Bodipy-positive cells [1]: 8.13 ± 4%

O=C(NC(Cc1cc(=O)[nH]c2ccccc12)C(=O)O)c1ccc(Cl)cc1 (stereo not drawn) [Rebamipide]
percent Bodipy-positive cells [4]: 9.93 ± 7.3% | percent Bodipy-positive cells (library stock concentration: 5.4 mM): 6.34 ± 2.6% | percent Bodipy-positive cells [1]: 16% and 30.4%

CCN1C(=O)C=CC1=O [N-Ethylmaleimide]
percent Bodipy-positive cells [1]: 100%

CCCCCC1OC1C/C=C\C/C=C\C/C=C\CCCC(=O)O (stereo not drawn)
percent Bodipy-positive cells (library stock concentration: 100 uM): 10.4 ± 6.6%

O=C(Nc1c[nH]nc1-c1nc2ccc(CN3CCOCC3)cc2[nH]1)NC1CC1
percent Bodipy-positive cells [3]: 75.6 ± 2.9%

CCN(CC)CCOc1ccc(/C(=C(/Cl)c2ccccc2)c2ccccc2)cc1.O=C(O)CC(O)(CC(=O)O)C(=O)O [Clomiphene citrate (Z,E)]
percent Bodipy-positive cells: 85.41 ± 0.27%

O=C(O)CCCN1CCC(O[C@@H](c2ccc(Cl)cc2)c2ccccn2)CC1 [Bepotastine Besilate]
percent Bodipy-positive cells [4]: 6.98 ± 3.5% | percent Bodipy-positive cells [1]: 23.3 ± 19%

O=C(Nc1ncc(SCCN2CCCC2)s1)[C@]1(c2ccc(S(=O)(=O)C3CC3)cc2)C[C@H]1C1CCCCC1
percent Bodipy-positive cells [1]: 95.5 ± 6.4%

CNc1nccc(-c2cccnc2Oc2cc(C(=O)Nc3cccc(C(F)(F)F)c3)ccc2C)n1
percent Bodipy-positive cells [1]: 87.8 ± 4.2%

COc1cc(C(=O)NC2CCN(C)CC2)ccc1Nc1ncc2c(n1)N(C1CCCC1)CCC(=O)N2C(C)C
percent Bodipy-positive cells [1]: 95.3 ± 1.4%

Cc1ccc(S(=O)(=O)OCC(=O)Nc2ccc(C(=O)O)c(O)c2)cc1
percent Bodipy-positive cells [4]: 6.76 ± 0.34% | percent Bodipy-positive cells [1]: 16.4 ± 0.41%

C[C@H]1C[C@H]2[C@@H]3CCC4=CC(=O)C=C[C@]4(C)[C@H]3C(=O)C[C@]2(C)[C@@]1(O)C(=O)CO [Meprednisone]
percent Bodipy-positive cells [4]: 17.7 ± 1.8% | percent Bodipy-positive cells [1]: 24.8 ± 19%

CC1(C)O[C@@H]2C[C@H]3[C@@H]4C[C@H](F)C5=CC(=O)CC[C@]5(C)[C@H]4[C@@H](O)C[C@]3(C)[C@]2(C(=O)CO)O1 [Flurandrenolide]
percent Bodipy-positive cells: 8.24 ± 2.5% | percent Bodipy-positive cells [1]: 32.5 ± 5.7%

CCC(=O)OCC(=O)[C@@]1(OC(=O)CC)[C@@H](C)C[C@H]2[C@@H]3CCC4=CC(=O)C=C[C@]4(C)[C@@]3(F)[C@@H](O)C[C@@]21C [Betamethasone 17,21-dipropionate]
percent Bodipy-positive cells (library stock concentration: 4 mM): 12.2 ± 0.36%

N[C@@H](Cc1ccc(O)c([N+](=O)[O-])c1)C(=O)O [Nitrotyrosine]
percent Bodipy-positive cells [2]: 13.1 ± 3.3%

CN1CCN(C(=O)c2nc3ccc(Cl)cc3[nH]2)CC1
percent Bodipy-positive cells [1]: 13 ± 0.89%

CC1(C)C=C(CN2C/C(=C\c3ccc(F)cc3)C(=O)/C(=C/c3ccc(F)cc3)C2)C(C)(C)N1O
percent Bodipy-positive cells [4]: 82 ± 7.1% | percent Bodipy-positive cells [1]: 100%

NC(C(=O)O)c1ccc(C(=O)O)c(C(=O)O)c1 (stereo not drawn)
percent Bodipy-positive cells [1]: 8.71 ± 1.5%

NNC(=O)c1ccncc1 [Isoniazid]
percent Bodipy-positive cells: 21.9 ± 1.9% | percent Bodipy-positive cells [4]: 13.3 ± 1.9% | percent Bodipy-positive cells [1]: 19.6% and 16.8% and 30.9%

CN(C(=O)CCCOc1ccc2[nH]c(=O)ccc2c1)C1CCCCC1 [Cilostamide]
percent Bodipy-positive cells (library stock concentration: 5.8 mM): 9.56 ± 0.95%

CC(C)N(CCC(=O)c1ccc2ccccc2c1)Cc1ccccc1.Cl
percent Bodipy-positive cells [1]: 99.32 ± 0.96%

O=C(O)c1cc2cc(F)ccc2[nH]1 [5-Fluoroindole-2-carboxylic acid]
percent Bodipy-positive cells [1]: 42.4 ± 4.5%

CCN1CCCC1CNC(=O)c1cc(S(N)(=O)=O)ccc1OC (stereo not drawn) [Sulpiride]
percent Bodipy-positive cells: 20 ± 2.6% | percent Bodipy-positive cells (library stock concentration: 5.9 mM): 22 ± 3.8%

CCN1CCCC1CNC(=O)c1cc(S(N)(=O)=O)ccc1OC (stereo not drawn) [(?)-Sulpiride]
percent Bodipy-positive cells [1]: 27.1 ± 6%

COc1ccc(-c2ccc3cc(C(=O)O)ccc3c2)cc1C12CC3CC(CC(C3)C1)C2
percent Bodipy-positive cells [1]: 49.1 ± 7.6%

COc1ccc(-c2ccc3cc(C(=O)O)ccc3c2)cc1C12CC3CC(CC(C3)C1)C2 [Adapalene]
percent Bodipy-positive cells [4]: 11 ± 3.2% | percent Bodipy-positive cells [1]: 10.4 ± 4%

Source: the supplement of paper PMC9135407
